Assay results reported in the supplement of paper PMC10849652.
The other results are listed elsewhere or left out.

The chains behind the UniProt entries cited, without tags or fusion partners. Where a name states a change or a piece, a line headed by the entry shows the natural chain unless it says otherwise.
UniProt Q9H2H8: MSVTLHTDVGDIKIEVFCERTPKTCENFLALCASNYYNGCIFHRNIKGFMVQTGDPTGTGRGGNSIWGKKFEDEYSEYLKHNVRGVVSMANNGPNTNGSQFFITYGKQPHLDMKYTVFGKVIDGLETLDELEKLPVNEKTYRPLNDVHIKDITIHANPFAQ
UniProt Q8TAP8: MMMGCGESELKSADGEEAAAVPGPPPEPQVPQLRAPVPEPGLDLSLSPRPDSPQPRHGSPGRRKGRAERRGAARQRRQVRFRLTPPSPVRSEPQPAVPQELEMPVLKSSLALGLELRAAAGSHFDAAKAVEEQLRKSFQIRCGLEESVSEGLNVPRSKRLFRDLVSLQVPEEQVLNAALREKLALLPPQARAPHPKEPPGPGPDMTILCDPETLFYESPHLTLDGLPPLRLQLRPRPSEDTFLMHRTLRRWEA
UniProt Q9Y570: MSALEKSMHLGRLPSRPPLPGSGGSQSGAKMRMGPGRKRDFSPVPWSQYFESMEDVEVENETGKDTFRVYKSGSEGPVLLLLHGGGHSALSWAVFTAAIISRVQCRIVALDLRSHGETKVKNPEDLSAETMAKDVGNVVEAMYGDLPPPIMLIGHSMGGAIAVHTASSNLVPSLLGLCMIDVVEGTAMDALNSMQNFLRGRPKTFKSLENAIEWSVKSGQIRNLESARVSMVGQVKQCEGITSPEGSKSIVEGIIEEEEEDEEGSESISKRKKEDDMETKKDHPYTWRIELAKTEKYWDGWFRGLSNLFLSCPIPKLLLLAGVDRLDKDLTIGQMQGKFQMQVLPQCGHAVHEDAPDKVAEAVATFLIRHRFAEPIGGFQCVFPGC
UniProt P07225: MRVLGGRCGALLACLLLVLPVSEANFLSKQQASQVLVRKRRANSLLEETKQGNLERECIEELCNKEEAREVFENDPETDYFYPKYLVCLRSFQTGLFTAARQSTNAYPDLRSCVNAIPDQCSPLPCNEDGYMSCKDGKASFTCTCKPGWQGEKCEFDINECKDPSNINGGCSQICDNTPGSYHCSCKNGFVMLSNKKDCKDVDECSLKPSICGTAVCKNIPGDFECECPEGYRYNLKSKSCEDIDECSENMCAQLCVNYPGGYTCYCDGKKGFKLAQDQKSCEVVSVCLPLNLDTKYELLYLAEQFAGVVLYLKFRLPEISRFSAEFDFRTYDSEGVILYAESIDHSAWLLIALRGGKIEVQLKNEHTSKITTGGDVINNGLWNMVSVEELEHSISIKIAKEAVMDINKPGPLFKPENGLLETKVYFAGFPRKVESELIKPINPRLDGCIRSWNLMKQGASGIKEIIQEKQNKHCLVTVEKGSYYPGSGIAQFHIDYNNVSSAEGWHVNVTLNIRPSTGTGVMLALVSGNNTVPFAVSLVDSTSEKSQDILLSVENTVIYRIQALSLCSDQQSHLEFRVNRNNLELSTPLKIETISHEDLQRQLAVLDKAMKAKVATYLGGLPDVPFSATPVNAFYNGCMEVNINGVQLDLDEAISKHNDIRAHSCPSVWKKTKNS
UniProt P49593: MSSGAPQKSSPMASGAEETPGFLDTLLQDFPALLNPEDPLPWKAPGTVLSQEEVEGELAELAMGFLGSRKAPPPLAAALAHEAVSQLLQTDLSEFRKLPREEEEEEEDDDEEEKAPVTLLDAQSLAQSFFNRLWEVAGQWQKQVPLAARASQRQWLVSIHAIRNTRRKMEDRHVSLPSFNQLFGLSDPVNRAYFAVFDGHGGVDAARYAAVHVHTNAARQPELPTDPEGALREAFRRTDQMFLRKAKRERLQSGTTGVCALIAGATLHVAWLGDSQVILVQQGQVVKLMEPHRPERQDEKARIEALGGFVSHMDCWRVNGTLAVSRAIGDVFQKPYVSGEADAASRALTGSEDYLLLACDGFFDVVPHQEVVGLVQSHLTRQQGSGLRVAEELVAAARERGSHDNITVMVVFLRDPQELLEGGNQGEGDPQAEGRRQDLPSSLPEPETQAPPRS
UniProt O15091: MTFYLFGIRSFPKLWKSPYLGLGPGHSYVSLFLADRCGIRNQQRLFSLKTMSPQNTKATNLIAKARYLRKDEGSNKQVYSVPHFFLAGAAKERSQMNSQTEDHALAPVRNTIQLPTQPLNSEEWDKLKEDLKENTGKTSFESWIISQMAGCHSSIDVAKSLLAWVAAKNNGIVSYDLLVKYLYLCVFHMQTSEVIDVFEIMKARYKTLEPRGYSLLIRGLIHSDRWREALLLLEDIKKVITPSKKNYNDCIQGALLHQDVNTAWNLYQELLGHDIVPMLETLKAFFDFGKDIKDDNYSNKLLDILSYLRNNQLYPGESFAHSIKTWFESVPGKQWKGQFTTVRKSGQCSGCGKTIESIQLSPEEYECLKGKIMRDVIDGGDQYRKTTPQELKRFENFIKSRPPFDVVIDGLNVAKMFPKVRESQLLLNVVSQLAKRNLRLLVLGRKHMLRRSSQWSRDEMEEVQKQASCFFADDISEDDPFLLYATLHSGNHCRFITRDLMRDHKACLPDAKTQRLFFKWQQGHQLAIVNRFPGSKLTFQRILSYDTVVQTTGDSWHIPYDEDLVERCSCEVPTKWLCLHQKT
UniProt Q6NUP7: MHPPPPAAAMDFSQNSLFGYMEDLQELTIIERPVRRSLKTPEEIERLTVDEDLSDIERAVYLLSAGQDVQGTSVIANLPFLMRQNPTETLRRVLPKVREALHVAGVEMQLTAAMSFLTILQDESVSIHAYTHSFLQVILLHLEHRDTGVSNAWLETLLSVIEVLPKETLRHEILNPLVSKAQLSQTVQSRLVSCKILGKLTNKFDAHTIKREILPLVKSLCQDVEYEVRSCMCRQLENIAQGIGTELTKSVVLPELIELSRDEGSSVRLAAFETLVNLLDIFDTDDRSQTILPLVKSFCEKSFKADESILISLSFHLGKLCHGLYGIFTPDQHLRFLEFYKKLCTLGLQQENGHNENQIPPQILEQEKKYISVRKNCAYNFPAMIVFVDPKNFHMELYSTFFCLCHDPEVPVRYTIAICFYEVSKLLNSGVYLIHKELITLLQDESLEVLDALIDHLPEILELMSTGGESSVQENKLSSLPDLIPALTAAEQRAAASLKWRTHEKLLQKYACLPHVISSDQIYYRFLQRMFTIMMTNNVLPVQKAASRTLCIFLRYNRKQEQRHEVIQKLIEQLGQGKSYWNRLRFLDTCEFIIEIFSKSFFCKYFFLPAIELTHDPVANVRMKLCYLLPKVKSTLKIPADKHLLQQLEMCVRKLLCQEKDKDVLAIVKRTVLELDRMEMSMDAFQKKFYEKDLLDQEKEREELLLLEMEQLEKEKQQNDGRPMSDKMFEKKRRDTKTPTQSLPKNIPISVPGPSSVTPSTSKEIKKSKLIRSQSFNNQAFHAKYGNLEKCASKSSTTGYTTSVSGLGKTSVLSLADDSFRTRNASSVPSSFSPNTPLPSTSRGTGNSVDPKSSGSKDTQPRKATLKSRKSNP
UniProt O43447: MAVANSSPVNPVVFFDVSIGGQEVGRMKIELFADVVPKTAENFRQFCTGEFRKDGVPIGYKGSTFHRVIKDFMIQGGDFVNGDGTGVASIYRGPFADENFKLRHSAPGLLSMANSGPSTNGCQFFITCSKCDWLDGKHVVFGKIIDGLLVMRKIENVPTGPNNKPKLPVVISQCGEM
UniProt P36873, whole entry, looked up: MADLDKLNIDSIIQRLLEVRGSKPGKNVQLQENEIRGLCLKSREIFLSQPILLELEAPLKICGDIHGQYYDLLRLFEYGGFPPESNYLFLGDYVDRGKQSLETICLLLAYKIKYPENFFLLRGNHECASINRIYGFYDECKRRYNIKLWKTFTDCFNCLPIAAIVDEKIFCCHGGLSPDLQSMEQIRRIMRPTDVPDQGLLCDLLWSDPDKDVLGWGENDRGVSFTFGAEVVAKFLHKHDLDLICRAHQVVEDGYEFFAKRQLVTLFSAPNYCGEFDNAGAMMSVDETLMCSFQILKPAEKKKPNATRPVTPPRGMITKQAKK
UniProt Q9Y3C6: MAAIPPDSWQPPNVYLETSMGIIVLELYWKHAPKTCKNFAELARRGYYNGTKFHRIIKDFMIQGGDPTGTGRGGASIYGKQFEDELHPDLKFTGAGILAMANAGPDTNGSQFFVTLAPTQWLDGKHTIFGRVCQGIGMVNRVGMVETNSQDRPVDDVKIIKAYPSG
UniProt Q6IN85: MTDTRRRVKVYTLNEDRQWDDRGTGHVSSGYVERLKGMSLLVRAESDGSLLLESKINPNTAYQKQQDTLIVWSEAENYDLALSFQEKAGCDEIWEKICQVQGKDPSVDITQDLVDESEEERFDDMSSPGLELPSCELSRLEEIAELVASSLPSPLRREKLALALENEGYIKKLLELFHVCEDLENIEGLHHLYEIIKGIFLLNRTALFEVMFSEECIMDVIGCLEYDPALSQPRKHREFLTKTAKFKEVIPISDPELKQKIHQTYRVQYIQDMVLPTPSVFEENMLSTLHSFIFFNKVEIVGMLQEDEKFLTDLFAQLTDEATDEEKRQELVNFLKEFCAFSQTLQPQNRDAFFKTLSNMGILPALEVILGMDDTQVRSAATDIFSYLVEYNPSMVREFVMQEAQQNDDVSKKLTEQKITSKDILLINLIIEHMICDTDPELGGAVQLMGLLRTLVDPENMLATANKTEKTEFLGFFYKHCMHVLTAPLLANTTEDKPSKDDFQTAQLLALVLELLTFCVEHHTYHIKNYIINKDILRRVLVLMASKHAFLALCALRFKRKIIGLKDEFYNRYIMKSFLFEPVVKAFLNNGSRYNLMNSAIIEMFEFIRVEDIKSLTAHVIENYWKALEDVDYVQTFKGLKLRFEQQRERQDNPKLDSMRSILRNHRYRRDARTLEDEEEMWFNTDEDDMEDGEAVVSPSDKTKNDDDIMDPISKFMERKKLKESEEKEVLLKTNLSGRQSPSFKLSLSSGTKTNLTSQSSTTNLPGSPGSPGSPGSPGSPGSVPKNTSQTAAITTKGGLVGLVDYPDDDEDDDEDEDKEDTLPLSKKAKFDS
UniProt Q99873, whole entry, looked up: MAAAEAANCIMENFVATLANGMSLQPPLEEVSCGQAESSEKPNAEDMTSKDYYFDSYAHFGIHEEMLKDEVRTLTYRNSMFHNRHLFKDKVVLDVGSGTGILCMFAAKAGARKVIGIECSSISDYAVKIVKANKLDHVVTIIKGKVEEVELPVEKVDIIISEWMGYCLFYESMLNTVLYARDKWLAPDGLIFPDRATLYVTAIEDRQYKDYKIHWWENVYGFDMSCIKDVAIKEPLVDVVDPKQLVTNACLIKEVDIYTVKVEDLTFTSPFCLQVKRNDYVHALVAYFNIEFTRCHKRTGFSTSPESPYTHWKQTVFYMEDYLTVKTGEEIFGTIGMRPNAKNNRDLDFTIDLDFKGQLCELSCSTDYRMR
UniProt Q16537, whole entry, looked up: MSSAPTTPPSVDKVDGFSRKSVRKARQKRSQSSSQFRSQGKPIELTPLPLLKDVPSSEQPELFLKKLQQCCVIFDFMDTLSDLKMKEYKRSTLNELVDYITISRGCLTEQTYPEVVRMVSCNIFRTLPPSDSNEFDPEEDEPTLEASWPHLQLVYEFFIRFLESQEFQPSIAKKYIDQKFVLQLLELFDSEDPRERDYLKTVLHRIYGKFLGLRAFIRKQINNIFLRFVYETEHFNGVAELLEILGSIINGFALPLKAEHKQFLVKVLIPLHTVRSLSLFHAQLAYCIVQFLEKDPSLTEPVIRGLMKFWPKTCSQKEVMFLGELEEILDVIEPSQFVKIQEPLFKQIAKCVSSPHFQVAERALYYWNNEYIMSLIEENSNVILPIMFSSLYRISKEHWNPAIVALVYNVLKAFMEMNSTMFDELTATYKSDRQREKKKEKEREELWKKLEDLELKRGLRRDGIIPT
UniProt Q96C90: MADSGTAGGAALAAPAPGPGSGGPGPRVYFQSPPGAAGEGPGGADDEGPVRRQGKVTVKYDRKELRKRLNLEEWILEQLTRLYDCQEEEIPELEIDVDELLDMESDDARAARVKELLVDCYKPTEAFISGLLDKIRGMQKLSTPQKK
UniProt Q13362, whole entry, looked up: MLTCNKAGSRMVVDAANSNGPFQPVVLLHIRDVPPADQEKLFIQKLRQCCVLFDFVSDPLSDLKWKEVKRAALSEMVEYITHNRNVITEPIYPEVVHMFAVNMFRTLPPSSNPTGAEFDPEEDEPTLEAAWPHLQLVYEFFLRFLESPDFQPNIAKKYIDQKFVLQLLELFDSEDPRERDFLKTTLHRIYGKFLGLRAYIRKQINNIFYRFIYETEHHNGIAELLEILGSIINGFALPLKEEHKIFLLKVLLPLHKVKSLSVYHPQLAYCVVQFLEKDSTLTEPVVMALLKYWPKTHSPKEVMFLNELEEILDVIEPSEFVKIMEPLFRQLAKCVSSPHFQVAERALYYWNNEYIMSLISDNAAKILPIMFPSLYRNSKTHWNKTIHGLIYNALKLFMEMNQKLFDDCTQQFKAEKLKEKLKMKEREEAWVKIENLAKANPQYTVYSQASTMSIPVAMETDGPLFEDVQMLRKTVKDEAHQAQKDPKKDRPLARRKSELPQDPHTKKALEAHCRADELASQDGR

Legend:
Assay in all cases: log2 fold change, soluble protein after heating vs DMSO (PISA); higher = thermal stabilisation; K562 lysate, 10 uM; active = over 0.2 and 3.5 SD of the protein, either way, in both replicates (recomputed)
[1] = compound: Cc1cn(-c2cc(NC(=O)c3ccc(C)c(Nc4nccc(-c5cccnc5)n4)c3)cc(C(F)(F)F)c2)cn1 [nilotinib]
Procedure, shortened: (§1)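 Log-two fold change in thermal stability relative to solvent controls is reported from duplicates. For each sample, crude K562 extract from dounce-homogenised pellets in PBS pH 7.4 with 1 mM MgCl2, at 1 mg/mL protein, was treated with 10 μM compound for 30 min. Aliquots heated for 3 min across 48°C-58°C were pooled, brought to 0.5% NP-40 at 4°C and cleared at 21,000xg for 90 min. The supernatant was quantified by TMTpro 16plex LC-MS/MS with channel sums equalised.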

[2] = compound: Cc1nc(Nc2n[nH]c3c2CN(C(=O)N[C@H](CN(C)C)c2ccccc2)C3(C)C)c2sccc2n1
Procedure, shortened: as §1

[3] = compound: Cc1nc(Nc2ncc(C(=O)Nc3c(C)cccc3Cl)s2)cc(N2CCN(CCO)CC2)n1 [dasatinib]
Procedure, shortened: as §1

[4] = compound: Cc1ncc(-c2ccnc(Nc3ccc(S(C)(=O)=O)cc3)n2)n1C(C)C
Procedure, shortened: as §1

[5] = compound: Cn1cc(-c2ccc3c(c2)CCN3C(=O)Cc2cccc(C(F)(F)F)c2)c2c(N)ncnc21
Procedure, shortened: as §1

[6] = compound: Cn1cc(CNCC2CCN(c3ncc(C(=O)NO)cn3)CC2)c2ccccc21 [quisinostat]
Procedure, shortened: as §1

[7] = compound: Cn1cncc1[C@@](N)(c1ccc(Cl)cc1)c1ccc2c(c1)c(-c1cccc(Cl)c1)cc(=O)n2C [tipifarnib]
Procedure, shortened: as §1

[8] = compound: NC(=O)Nc1cc(-c2cccc(F)c2)sc1C(=O)N[C@H]1CCCNC1
Procedure, shortened: as §1

[9] = compound: NC(=O)c1cnc(N[C@@H]2CCCC[C@@H]2N)nc1Nc1cccc(-n2nccn2)c1
Procedure, shortened: as §1

[10] = compound: NC1(c2ccc(-c3nc4ccn5c(=O)[nH]nc5c4cc3-c3ccccc3)cc2)CCC1
Procedure, shortened: as §1

[11] = compound: NCC(=O)Nc1ccc(-n2nc(C(F)(F)F)cc2-c2ccc3c(ccc4ccccc43)c2)cc1
Procedure, shortened: as §1

[12] = compound: O=C(CCCCCCC(=O)Nc1ccccc1)NO [vorinostat]
Procedure, shortened: as §1

[13] = compound: O=C(O)c1ccc2c(c1)nc(Nc1cccc(Cl)c1)c1ccncc12 [silmitasertib]
Procedure, shortened: as §1

[14] = compound: O=C1NC(=O)C(c2cnc3ccccn23)=C1c1cn2c3c(cc(F)cc13)CN(C(=O)N1CCCCC1)CC2
Procedure, shortened: as §1

[15] = compound: c1cn2cc(-c3ccc4cn[nH]c4c3)nc(Nc3ccc(N4CCOCC4)cc3)c2n1 [entospletinib]
Procedure, shortened: as §1

Measured: log2 fold change

PRKCI (UniProt P41743)
inactive: [1] 0 | [2] 0.004 | [3] -0.091 | [4] 0 | [5] 0.003 | [6] 0.042 | [7] -0.016 | [8] -0.011 | [9] 0.001 | [10] 0.001 | [11] -0.032 | [12] -0.119 | [13] -0.009 | [14] 0.006 | [15] 0.023

PPIL3 (UniProt Q9H2H8)
inactive: [1] 0.121 | [2] 0.023 | [3] -0.049 | [4] 0.176 | [5] -0.032 | [6] 0.017 | [7] -0.028 | [8] -0.025 | [9] -0.054 | [10] -0.051 | [11] 0.084 | [12] -0.155 | [13] -0.022 | [14] 0.029 | [15] -0.016

PRPF38B (UniProt Q5VTL8)
inactive: [1] 0.03 | [2] -0.005 | [3] -0.003 | [4] -0.005 | [5] 0.014 | [6] -0.01 | [7] -0.003 | [8] -0.011 | [9] -0.035 | [10] -0.028 | [11] 0.007 | [12] -0.077 | [13] -0.043 | [14] 0.025 | [15] 0.026

PPP3CB (UniProt P16298)
inactive: [1] -0.017 | [2] 0.053 | [3] 0.045 | [4] 0 | [5] 0 | [6] -0.025 | [7] 0.005 | [8] 0.009 | [9] 0.019 | [10] 0.001 | [11] -0.004 | [12] 0.046 | [13] 0.066 | [14] -0.019 | [15] -0.006

PPP1R35 (UniProt Q8TAP8)
inactive: [1] 0.057 | [2] -0.104 | [3] 0.042 | [4] 0.042 | [5] 0.081 | [6] 0.084 | [7] -0.076 | [8] 0.047 | [9] 0.019 | [10] 0.206 | [11] -0.027 | [12] -0.054 | [13] 0.143 | [14] 0.011 | [15] -0.012

PPP1R9A isoform 3 (UniProt Q9ULJ8)
inactive: [1] 0.006 | [2] -0.071 | [3] 0.019 | [4] -0.005 | [5] -0.045 | [6] -0.035 | [7] 0.022 | [8] -0.015 | [9] -0.052 | [10] 0.101 | [11] 0.139 | [12] 0.167 | [13] 0.013 | [14] -0.034 | [15] -0.005

PPME1 isoform 4 (UniProt Q9Y570)
inactive: [1] 0.01 | [2] -0.053 | [3] -0.008 | [4] -0.025 | [5] -0.003 | [6] 0.018 | [7] 0.01 | [8] -0.03 | [9] -0.016 | [10] 0.041 | [11] -0.02 | [12] -0.03 | [13] 0.013 | [14] 0.005 | [15] 0.031

PROS1 (UniProt P07225)
inactive: [1] -0.022 | [2] 0.037 | [3] 0.037 | [4] -0.011 | [5] 0.037 | [6] -0.089 | [7] -0.041 | [8] 0.022 | [9] 0.009 | [10] -0.007 | [11] -0.017 | [12] 0.048 | [13] 0.004 | [14] -0.016 | [15] -0.045

2 entries drawn at random from those above:
PPP1R9A isoform 3 (UniProt Q9ULJ8)
inactive: [1] 0.006 | [2] -0.071 | [3] 0.019 | [4] -0.005 | [5] -0.045 | [6] -0.035 | [7] 0.022 | [8] -0.015 | [9] -0.052 | [10] 0.101 | [11] 0.139 | [12] 0.167 | [13] 0.013 | [14] -0.034 | [15] -0.005

PPP1R35 (UniProt Q8TAP8)
inactive: [1] 0.057 | [2] -0.104 | [3] 0.042 | [4] 0.042 | [5] 0.081 | [6] 0.084 | [7] -0.076 | [8] 0.047 | [9] 0.019 | [10] 0.206 | [11] -0.027 | [12] -0.054 | [13] 0.143 | [14] 0.011 | [15] -0.012

The list continues:

PPM1F (UniProt P49593)
inactive: [1] 0.031 | [2] -0.013 | [3] -0.015 | [4] 0.02 | [5] -0.001 | [6] 0.026 | [7] 0.015 | [8] -0.001 | [9] 0.028 | [10] 0.008 | [11] 0.004 | [12] 0.002 | [13] 0.042 | [14] 0 | [15] -0.007

PRORP (UniProt O15091)
inactive: [1] 0.137 | [2] -0.176 | [3] -0.044 | [4] 0.029 | [5] 0.02 | [6] -0.071 | [7] -0.128 | [8] 0.096 | [9] 0.064 | [10] -0.179 | [11] 0.068 | [12] -0.078 | [13] 0.007 | [14] -0.013 | [15] 0.042

PPP4R4 (UniProt Q6NUP7)
inactive: [1] 0.103 | [2] -0.088 | [3] 0.055 | [4] 0.276 | [5] -0.12 | [6] -0.279 | [7] 0.012 | [8] 0.171 | [9] 0.005 | [10] -0.189 | [11] 0.201 | [12] 0.323 | [13] -0.155 | [14] 0.385 | [15] 0.163

PPIH (UniProt O43447)
inactive: [1] 0.009 | [2] -0.013 | [3] 0.003 | [4] -0.026 | [5] 0.006 | [6] -0.043 | [7] 0 | [8] -0.022 | [9] 0.026 | [10] 0.021 | [11] -0.009 | [12] -0.009 | [13] 0.041 | [14] -0.057 | [15] 0.003

PPP1CC isoform 2 (UniProt P36873)
inactive: [1] 0.017 | [2] 0.006 | [3] -0.004 | [4] -0.007 | [5] 0.009 | [6] 0.057 | [7] -0.035 | [8] -0.007 | [9] -0.004 | [10] 0 | [11] 0.007 | [12] 0.027 | [13] 0.006 | [14] -0.064 | [15] 0.001

PPM1G (UniProt O15355)
inactive: [1] -0.011 | [2] 0.018 | [3] 0.002 | [4] 0.008 | [5] 0.033 | [6] 0.034 | [7] 0.02 | [8] -0.021 | [9] 0 | [10] 0.029 | [11] -0.034 | [12] -0.074 | [13] 0.008 | [14] -0.01 | [15] 0.001

PPIL1 (UniProt Q9Y3C6)
inactive: [1] -0.006 | [2] 0.025 | [3] -0.04 | [4] -0.019 | [5] 0.025 | [6] -0.041 | [7] 0 | [8] 0.016 | [9] 0.021 | [10] 0.069 | [11] -0.027 | [12] -0.169 | [13] 0.029 | [14] -0.032 | [15] 0

PPP4R3A (UniProt Q6IN85)
inactive: [1] -0.005 | [2] 0.007 | [3] 0.092 | [4] 0.01 | [5] 0.015 | [6] -0.006 | [7] 0.005 | [8] 0.011 | [9] -0.011 | [10] 0.004 | [11] 0 | [12] 0.068 | [13] -0.007 | [14] -0.003 | [15] -0.04

PRMT1 (UniProt Q99873)
inactive: [1] 0.002 | [2] -0.024 | [3] -0.011 | [4] 0.006 | [5] -0.001 | [6] -0.082 | [7] 0.011 | [8] -0.002 | [9] -0.009 | [10] 0.013 | [11] 0.03 | [12] -0.196 | [13] -0.023 | [14] -0.017 | [15] 0.013

PPP2R5E (UniProt Q16537)
inactive: [1] -0.002 | [2] 0 | [3] -0.015 | [4] 0.038 | [5] 0.028 | [6] 0.036 | [7] -0.003 | [8] 0.002 | [9] 0.021 | [10] -0.022 | [11] -0.003 | [12] -0.054 | [13] 0.031 | [14] 0.021 | [15] 0.001

PPP1R14B (UniProt Q96C90)
inactive: [1] 0.009 | [2] -0.087 | [3] -0.016 | [4] -0.029 | [5] -0.04 | [6] -0.021 | [7] 0.096 | [8] 0.024 | [9] -0.018 | [10] 0.024 | [11] 0.052 | [12] 0.129 | [13] -0.011 | [14] 0.028 | [15] -0.013

PPP2R5C isoform 4 (UniProt Q13362)
inactive: [1] -0.012 | [2] -0.005 | [3] 0.031 | [4] -0.002 | [5] 0.017 | [6] -0.126 | [7] 0.021 | [8] 0.079 | [9] -0.013 | [10] -0.04 | [11] 0.075 | [12] 0.082 | [13] -0.067 | [14] 0.074 | [15] -0.012
